Measurements as given in article PMC9380471.
No constants are given. Whether binding was seen depends on the method and setting. In cells and extracts the contact can be indirect. Some results given as binding are weak or reduced against the parent protein; the word gives no strength.

Amino acid sequences for entries named in this document (tags omitted).
UniProt Q9NVR2: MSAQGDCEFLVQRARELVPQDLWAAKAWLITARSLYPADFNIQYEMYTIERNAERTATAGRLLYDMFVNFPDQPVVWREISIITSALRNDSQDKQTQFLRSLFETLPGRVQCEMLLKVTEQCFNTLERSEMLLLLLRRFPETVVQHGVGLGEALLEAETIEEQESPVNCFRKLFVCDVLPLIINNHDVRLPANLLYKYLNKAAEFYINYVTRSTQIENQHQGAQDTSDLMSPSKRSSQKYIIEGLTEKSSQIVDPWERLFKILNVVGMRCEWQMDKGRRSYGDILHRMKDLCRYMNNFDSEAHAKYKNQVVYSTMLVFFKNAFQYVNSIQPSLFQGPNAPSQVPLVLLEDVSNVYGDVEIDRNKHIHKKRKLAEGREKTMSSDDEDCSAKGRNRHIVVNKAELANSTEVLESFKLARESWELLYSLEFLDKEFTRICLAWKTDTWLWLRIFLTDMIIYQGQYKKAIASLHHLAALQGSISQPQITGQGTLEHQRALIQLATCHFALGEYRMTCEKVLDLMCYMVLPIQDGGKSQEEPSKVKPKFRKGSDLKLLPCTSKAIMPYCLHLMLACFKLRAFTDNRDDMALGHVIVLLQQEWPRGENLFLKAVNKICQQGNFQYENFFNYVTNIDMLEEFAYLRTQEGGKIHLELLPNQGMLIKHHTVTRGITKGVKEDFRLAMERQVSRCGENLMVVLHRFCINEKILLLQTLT
UniProt Q96N11: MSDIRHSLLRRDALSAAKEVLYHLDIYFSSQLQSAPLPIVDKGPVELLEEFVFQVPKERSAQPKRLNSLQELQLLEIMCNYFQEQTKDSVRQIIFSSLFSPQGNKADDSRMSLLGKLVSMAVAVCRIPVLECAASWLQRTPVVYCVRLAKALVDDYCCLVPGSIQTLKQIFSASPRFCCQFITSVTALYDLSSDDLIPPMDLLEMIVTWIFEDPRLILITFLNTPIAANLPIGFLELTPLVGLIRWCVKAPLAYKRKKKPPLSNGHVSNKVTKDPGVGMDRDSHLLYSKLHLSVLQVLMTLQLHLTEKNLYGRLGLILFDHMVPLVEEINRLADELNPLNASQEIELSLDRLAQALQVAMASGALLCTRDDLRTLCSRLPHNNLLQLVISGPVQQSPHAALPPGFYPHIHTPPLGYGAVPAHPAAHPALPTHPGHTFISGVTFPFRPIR
UniProt Q9NVM9: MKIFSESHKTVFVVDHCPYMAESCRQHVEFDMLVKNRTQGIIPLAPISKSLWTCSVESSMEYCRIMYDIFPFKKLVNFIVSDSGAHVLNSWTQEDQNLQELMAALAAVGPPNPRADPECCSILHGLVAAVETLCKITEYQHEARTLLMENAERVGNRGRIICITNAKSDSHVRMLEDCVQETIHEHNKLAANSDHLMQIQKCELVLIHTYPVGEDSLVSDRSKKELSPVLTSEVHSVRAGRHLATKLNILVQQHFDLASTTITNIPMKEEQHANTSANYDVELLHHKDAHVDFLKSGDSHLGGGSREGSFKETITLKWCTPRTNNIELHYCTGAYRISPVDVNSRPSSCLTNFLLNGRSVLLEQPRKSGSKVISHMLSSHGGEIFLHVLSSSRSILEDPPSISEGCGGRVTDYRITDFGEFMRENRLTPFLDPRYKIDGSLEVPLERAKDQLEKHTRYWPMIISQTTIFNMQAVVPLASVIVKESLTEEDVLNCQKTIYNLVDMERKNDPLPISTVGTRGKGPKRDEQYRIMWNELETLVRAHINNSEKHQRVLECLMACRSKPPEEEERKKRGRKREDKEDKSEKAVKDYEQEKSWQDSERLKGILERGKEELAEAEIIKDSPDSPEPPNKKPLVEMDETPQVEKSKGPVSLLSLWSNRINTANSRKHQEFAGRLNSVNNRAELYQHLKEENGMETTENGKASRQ

Assays:
[1] = target: HIS-INTS10 (Expi293) (human) (UniProt Q9NVR2); assay: pull-down + SEC; HIS-INTS10, INTS13, INTS14 and C7orf26 co-expressed in Expi293; Ni-NTA agarose from lysate, then Superdex 200 Increase 10/300 GL in 50 mM HEPES pH 8.0, 150 mM KCl, 10% glycerol, 1 mM EDTA; fractions probed by western blot
His8-INTS10 (human) = His8-INTS10 (human) (UniProt Q9NVR2); assay: pull-down; His8-INTS10 (or untagged INTS10) transfected into HEK 293T/17; lysate in IP lysis buffer (25 mM Tris-HCl pH 7.4, 150 mM NaCl, 1 mM EDTA, 1% NP-40, 5% glycerol) + 10 mM imidazole, cobalt magnetic beads, 4 degrees, eluted with 300 mM imidazole; western blot (the legend calls it co-immunoprecipitation)

binding [1]	binding (His8-INTS10 (human))	Substance
binds	–	C7orf26 (overexpressed, Expi293) (from UniProt Q96N11 1-449)
–	binds	INTS13 (endogenous, HEK293T) (from UniProt Q9NVM9 1-706)
–	binds	endogenous C7orf26 (from UniProt Q96N11 1-449)
binds	–	INTS13 (overexpressed, Expi293) (from UniProt Q9NVM9 1-706)
